Results are given in words; binding and its absence hold for the method and conditions named. Some results given as binding are weak or reduced against the parent protein; the word gives no strength. Tags and fused reporters may be left off the sequences shown.
Key:
[1] = target: murine RAGE (mouse) (UniProt Q62151); assay: HTRF competition on murine RAGE
[2] = target: human RAGE expressed on CHO cells (human) (UniProt Q15109); assay: binding to cell surface expressed human RAGE

Chains of the proteins cited; added tags and fusions are not shown. Residues count along the entry.
UniProt Q62151, residues 23-340: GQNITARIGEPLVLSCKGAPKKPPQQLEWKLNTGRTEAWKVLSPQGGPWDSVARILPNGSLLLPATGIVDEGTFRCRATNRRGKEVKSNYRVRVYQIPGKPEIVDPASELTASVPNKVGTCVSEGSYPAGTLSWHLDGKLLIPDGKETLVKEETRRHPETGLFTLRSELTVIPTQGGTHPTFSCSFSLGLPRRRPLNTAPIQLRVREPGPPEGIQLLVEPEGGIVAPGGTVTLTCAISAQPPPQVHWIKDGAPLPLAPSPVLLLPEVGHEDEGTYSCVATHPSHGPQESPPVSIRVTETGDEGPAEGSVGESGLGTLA
UniProt Q15109, residues 23-404: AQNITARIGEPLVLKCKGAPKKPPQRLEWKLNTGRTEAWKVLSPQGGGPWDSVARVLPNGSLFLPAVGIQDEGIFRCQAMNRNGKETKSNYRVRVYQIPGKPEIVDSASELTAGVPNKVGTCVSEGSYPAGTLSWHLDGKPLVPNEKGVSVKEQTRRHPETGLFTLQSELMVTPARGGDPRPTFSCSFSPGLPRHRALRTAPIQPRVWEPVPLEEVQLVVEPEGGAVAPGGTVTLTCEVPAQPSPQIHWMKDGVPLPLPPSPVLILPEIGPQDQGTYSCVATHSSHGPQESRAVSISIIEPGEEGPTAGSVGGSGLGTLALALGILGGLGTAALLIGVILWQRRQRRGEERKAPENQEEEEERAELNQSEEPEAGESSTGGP

B1: 1G6 scFv-Fc fusion (Fc fusion)
chain: DIQMTQSPSSLSASVGDRVTITCRASQDVGFYVNWFQQKPGKAPRRLIYRATNLADGVPSRFSGSRSGTDFTLTISSLQPEDFATYYCLEFDEHPLTFGGGTKVEIKDGGGSGGGGSGGGGSSEVQLVESGGGLVQPGGSLRLSCAASGFTFNNYWMTWVRQAPGKGLEWVASIDNSGDNTYYPDSVKDRFTISRDNAKNSLYLQMNSLRAEDTAVYYCARGGDITNGFDYWGQGTLVTVSS
notes: not shown: wild-type human IgG Fc (hinge and constant domains)
For B1, the binding [1] was “binds” and the binding [2] was “binds”.

B2: 2E6 scFv-Fc fusion (Fc fusion)
chain: DIQMTQSPSSLSASVGDRVTITCRASQDVGIYVNWFQQKPGKAPRRLIYRATNLADGVPSRFSGSRSGTDFTLTISSLQPEDFATYYCLEFDEHPLTFGGGTKVEIKDGGGSGGGGSGGGGNSEVQLVESGVGLVQPGGSLRLSCAASGFTFNNYWMTWVRQAPGKGLEWVASIDNSGDNTYYPDSVKDRFTISRDNAKNSLYLQMNSLRAEDTAVYYCARGGDITNGLDYWGQGTLVTVSS
notes: also called 2E6 (c); not shown: wild-type human IgG Fc (hinge and constant domains)
For B2, the binding [1] was “binds” and the binding [2] was “binds”.

B3: 3A6 scFv-Fc fusion (Fc fusion)
chain: DIQMTQSPSSLSASVGDRVTITCRASQDVGIYVNWFQQKPGKAPRRLIYRATNLADGVPSRFSGSRSGTDFTLTISSLQPEDFATYYCLEFDEHPLTFGGGTKVEIKDGGGSGGGGSGGGGSSEVQLVESGGGLVQPGGSLRLSCAASGFTFNNYWMTWVRQAPGKGLEWVASIDNSGDNTYYPDSVKDRFTISRDNAKNSLYLQMNSLRAEDTAVYYCARGGDILVSLDVWGQGTLVTVSS
notes: as for B1
With B3 the binding [1] was “binds” and the binding [2] was “binds”.

B4: 3B2 scFv-Fc fusion (Fc fusion)
chain: DIQMTQSPSSLSASVGDRVTITCRASQDVGIYVNWFQQKPGKAPRRLIYRATNLADGVPSRFSGSRSGTDFTLTISSLQPEDFATYYCLEFDEHPLTFGGGTKVEIKDGGGSGGGGSGGGGSSEVQLVESGGGLVQPGGSLRLSCAASGFTFNNYWMTWVRQAPGKGLEWVASIDNSGDNTYYPDSVKDRFTISRDNAKNSLYLQMNSLRAEDTAVYYCARGGDILVGLDYWGQGTLVTVSS
notes: as for B1
B4 was tested, and the binding [1] was “binds” and the binding [2] was “binds”.

B5: 3B3 scFv-Fc fusion (Fc fusion)
chain: DIQMTQSPSSLSASVGDRVTITCRASQDVGFYVNWFQQKPGKAPRRLIYRATNLADGVPSRFSGSRSGTDFTLTISSLQPEDFATYYCLEFDEHPLTFGGGTKVEIKDGGGSGGGGSGGGGSSEVQLVESGGGLVQPGGSLRLSCAASGFTFNNYWMTWVRQAPGKGLEWVASIDNSGDNTYYPDSVKDRFTISRDNAKNSLYLQMNSLRAEDTAVYYCARGGDITTGLDYWGQGTLVTVSS
notes: as for B1
In the case of B5, the binding [1] is reported as “binds” and the binding [2] is reported as “binds”.

B6: 3D2 scFv-Fc fusion (Fc fusion)
chain: DIQMTQSPSSLSASVGDRVTITCRASQDVGIYVNWFQQKPGKAPRRLIYRATNLADGVPSRFSGSRSGTDFTLTISSLQPEDFATYYCLEFDEHPLTFGGGTKVEIKDGGGSGGGGSGGGGSSEVQLVESGGGLVQPGGSLRLSCAASGFTFNNYWMTWVRQAPGKGLEWVASIDNSGDNTYYPDSVKDRFTISRDNAKNSLYLQMNSLRAEDTAVYYCARGGDIRVSLDHWGQGTLVTVSS
notes: as for B1
With B6 the binding [1] was “binds” and the binding [2] was “binds”.

B7: 3G5 scFv-Fc fusion (Fc fusion)
chain: DIQMTQSPSSLSASVGDRVTITCRASQDVGIYVNWFQQKPGKAPRRLIYRATNLADGVPSRFSGSRSGTDFTLTISSLQPEDFATYYCLEFDEHPLTFGGGTKVEIKDGGGSGGGGSGGGGSSEVQLVESGGGLVQPGGSLRLSCAASGFTFNNYWMTWVRQAPGKGLEWVASIDNSGDNTYYPDSVKDRFTISRDNAKNSLYLQMNSLRAEDTAVYYCARGGDILDSLPYWGQGTLVTVSS
notes: Substitutions derived from the printed HCDR3; not shown: wild-type human IgG Fc (hinge and constant domains)
In the case of B7, the binding [1] is reported as “binds” and the binding [2] is reported as “binds”.

B8: 5A3 scFv-Fc fusion (Fc fusion)
chain: DIQMTQSPSSLSASVGDIVTITCRASQDVGIYVNWFQQKPGKAPRRLIYRATNLADGVPSRFSGSRSSTDFTLTISSLQPEDFATYYCLEFDEHPLTFGGGTKVEIKDGGGSGGGGSGGGGSSEVQLVESGGGLVQPGGSLRLSCAASGFTFNNYWMTWVRQAPGKGLEWVASIDNSGDNTYYPDSVKDRFTISRDNAKNSLYLKMNSLRAEDTAVYYCTRGGDITTGLDYWGQGTLVTVSS
notes: as for B1
With B8 the binding [1] was “binds” and the binding [2] was “binds”.

B9: 5H3 scFv-Fc fusion (Fc fusion)
chain: DIQMTQSPSSLSASVGDRVTITCRASQDVGIYVNWFQQKPGKAPRRLIDRATNLADGVPSRFSGSRSGTDFTLTISSLQPEDFATYYCLEFDEHPLTFGGGTKVEIKDGGGSGGGGSGGGGSSEVLLVESGGGLVQPGGSLRLSCAASGFTFNNYWMTWVRQAPGKGLEWVASIDNSGDNTYYPDSVKDRFTISRDNAKNSLYLQMNSLRAEDTAVYYCARGGDITTGFDYWGQGTLVTVSS
notes: as for B1
With B9 the binding [1] was “binds”.

B10: 6B2 scFv-Fc fusion (Fc fusion)
chain: DIQMTQSPSSLSASVGDRVTITCRASQDVGIYVNWFQQKPGKAPRRLIYRATNLADGVPSRFSGSRSGTDFTLTISSLQPEDFATYYCLEFDEHPLTFGGGTKVEIKDGGGSGGGGSGGGGSSEVQLVESGGGLVQPGGSLRLSCAASGFTFNNYWMTWVRQAPGKGLEWVASIDNSGDNTYYPDSVKDRFTISRDNAKNSLYLQMNSLRAEDTAVYYCARGGDIRVGLDVWGQGTLVTVSS
notes: as for B7
B10 was tested, and the binding [1] was “binds” and the binding [2] was “binds”.

B11: 6B6 scFv-Fc fusion (Fc fusion)
chain: DIQMTQSPSSLSASVGDRVTITCRASQDVGIYVNWFQQKPGKAPRRLIYRATNLADGVPSRFSGSRSGTDFTLTISSLQPEDFATYYCLEFDEHPLTFGGGTKVEIKDGGGSGGGGSGGGGSSEVQLVESGGGLVQPGGSLRLSCAASGFTFNNYWMTWVRQAPGKGLEWVASIDNSGDNTYYPDSVKDRFTISRDNAKNSLYLQMNSLRAEDTAVYYCARGGDIIISLDWWGQGTLVTVSS
notes: as for B7
In the case of B11, the binding [2] is reported as “binds”.

B12: 6C2 scFv-Fc fusion (Fc fusion)
chain: DIQMTQSPSSLSASVGDRVTITCRASQDVGIYVNWFQQKPGKAPRRLIYRATNLADGVPSRFSGSRSGTDFTLTISSLQPEDFATYYCLEFDEHPLTFGGGTKVEIKDGGGSGGGGSGGGGSSEVQLVESGGGLVQPGGSLRLSCAASGFTFNNYWMTWVRQAPGKGLEWVASIDNSGDNTYYPDSVKDRFTISRDNAKNSLYLQMNSLRAEDTAVYYCARGGDIKVSLDRWGQGTLVTVSS
notes: as for B1
In the case of B12, the binding [1] is reported as “binds” and the binding [2] is reported as “binds”.

B13: 6C3 scFv-Fc fusion (Fc fusion)
chain: DIQMTQSPSSLSASVGDRVTITCRASQDVGIYVNWFQQKPGKAPRRLIYRATNLADGVPSRFSGSRSGTDFTLTISSLQPEDFATYYCLEFDEHPLTFGGGTKVEIKDGGGSGGGGSGGGGSSEVQLVESGGGLVQPGGSLRLSCAASGFTFNNYWMTWVRQAPGKGLEWVASIDNSGDNTYYPDSVKDRFTISRDNAKNSLYLQMNSLRAEDTAVYYCARGGDITLGLDVWGQGTLVTVSS
notes: as for B1
B13 was tested, and the binding [1] was “binds” and the binding [2] was “binds”.

B14: 6G4 scFv-Fc fusion (Fc fusion)
chain: DIQMTQSPSSLSASVGDRVTITCRASQDVGIYVNWFQQKPGKAPRRLIYRATNLADGVPSRFSGSRSGTDFTLTISSLQPEDFATYYCLEFDEHPLTFGGGTKVEIKDGGGSGGGGSGGGGSSEVQLVESGGGLVQPGGSLRLSCAASGFTFNNYWMTWVRQAPGKGLEWVASIDNSGDNTYYPDSVKDRFTISRDNAKNSLYLQMNSLRAEDTAVYYCARGGDILDSLHFWGQGTLVTVSS
notes: Assayed separately; fold gain against the M4 value of the ribosome display set; not shown: wild-type human IgG Fc (hinge and constant domains)
In the case of B14, the binding [1] is reported as “binds” and the binding [2] is reported as “binds”.

B15: 8G9 scFv-Fc fusion (Fc fusion)
chain: DIQMTQSPSSLSASVGDRVTITCRASQDVGIYVNWFQQKPGKAPRRLIYRATNLADGVPSRFSGSRSGTDFTLTISSLQPEDFATYYCLEFDEHPLTFGGGTKVEIKDGGGSGGGGSGGGGSSEVQLVESGGGLVQPGSSLRLSCAASGFTFNNYWMTWVRQAPGKGLEWVASIDNSGDNTYYPDSVKDRFTISRDNAKNSLYLQMNSLRAEDTAVYYCARGGDITTGLDYWGQGTLVTVSS
notes: as for B1
B15 was tested, and the binding [1] was “binds” and the binding [2] was “binds”.

B16: 10D8 scFv-Fc fusion (Fc fusion)
chain: DIQMTQSPSSLSASVGDKVTITCRASQDVGFYVNWFQQKPGKAPRRLIYRATNLADGVPSRFSGSRSGTDFTLTISSLQPEDFATYYCLEFDEHPLTFGGGTKVEIKDGGGSGNGGSGGGGSSEVQLVESGGELVQPGGSLRLSCAASGFTFNNYWMTWVRQAPGKGLEWVASIDNSGDNTYYPDSVKDRFTISRDNAKNSLYLQMNSLRAEDTAVYYCARGGDITTGFDYWGQGTLVTVSS
notes: also called 10D8 (b); not shown: wild-type human IgG Fc (hinge and constant domains)
For B16, the binding [1] was “binds” and the binding [2] was “binds”.

B17: 10G10 scFv-Fc fusion (Fc fusion)
chain: DIQMTQSPSSLSASVGDRVTITCRASQDVGIYVNWFQQKPGKAPRRLIYRATNLADGVPSRFSGSRSGTDFTLTISSLQPEDFATYYCLEFDEHPLTFGGGTRVEIKDGGGSGGGGSGGGGSSEVQLVESGGGLVQPGGSLRLSCAASGFTFNNYWMSWVRQAPGKGLEWVASIDNSGENTYYPDSVKDRFTISRDNAKNSLYLQMNSLRAEDTAVYYCARGGDITTGFDYWGQGTLVTVSS
notes: as for B1
With B17 the binding [1] was “binds” and the binding [2] was “binds”.

B18: 10H6 scFv-Fc fusion (Fc fusion)
chain: DIQMTQSPSSLSASVGDGVTITCQASQDVGIYVNWFQQKPGKAPRRLIYRATNLADGVPSRFSGSRSGTDFTLTISSLQPEDFATYYCLEFDEHPLTFGGGTKVEIKNGGGSGGGGSGGGGSSEVQLVESGGGLVQPGGSLRLSCAASGFTFNNYWMTWVRQAPGKGLEWVASIDNSGDNTYYPDSVKDRFTISRDNAKNSLYLQMNSLRAEDTAVYYCARGGDITTGLDYWGQGTLVTESS
notes: also called 10H6 (a); not shown: wild-type human IgG Fc (hinge and constant domains)
In the case of B18, the binding [1] is reported as “binds”.

From patent publication US20100143349A1 (Pfizer, published 2010)
